Results from publication PMC4005653.
These are yes or no findings as the source states them, for the method shown. Binding seen in cells or lysates may run through a third protein. Some entries that bind do so weakly or less than the wild type.

Sequences of proteins named here, by UniProt entry; tags and fusion partners are left off.
UniProt P17096: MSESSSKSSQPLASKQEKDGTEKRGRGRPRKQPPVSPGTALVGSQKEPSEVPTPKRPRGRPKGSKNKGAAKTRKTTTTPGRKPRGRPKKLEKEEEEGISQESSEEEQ
UniProt Q9C0K0: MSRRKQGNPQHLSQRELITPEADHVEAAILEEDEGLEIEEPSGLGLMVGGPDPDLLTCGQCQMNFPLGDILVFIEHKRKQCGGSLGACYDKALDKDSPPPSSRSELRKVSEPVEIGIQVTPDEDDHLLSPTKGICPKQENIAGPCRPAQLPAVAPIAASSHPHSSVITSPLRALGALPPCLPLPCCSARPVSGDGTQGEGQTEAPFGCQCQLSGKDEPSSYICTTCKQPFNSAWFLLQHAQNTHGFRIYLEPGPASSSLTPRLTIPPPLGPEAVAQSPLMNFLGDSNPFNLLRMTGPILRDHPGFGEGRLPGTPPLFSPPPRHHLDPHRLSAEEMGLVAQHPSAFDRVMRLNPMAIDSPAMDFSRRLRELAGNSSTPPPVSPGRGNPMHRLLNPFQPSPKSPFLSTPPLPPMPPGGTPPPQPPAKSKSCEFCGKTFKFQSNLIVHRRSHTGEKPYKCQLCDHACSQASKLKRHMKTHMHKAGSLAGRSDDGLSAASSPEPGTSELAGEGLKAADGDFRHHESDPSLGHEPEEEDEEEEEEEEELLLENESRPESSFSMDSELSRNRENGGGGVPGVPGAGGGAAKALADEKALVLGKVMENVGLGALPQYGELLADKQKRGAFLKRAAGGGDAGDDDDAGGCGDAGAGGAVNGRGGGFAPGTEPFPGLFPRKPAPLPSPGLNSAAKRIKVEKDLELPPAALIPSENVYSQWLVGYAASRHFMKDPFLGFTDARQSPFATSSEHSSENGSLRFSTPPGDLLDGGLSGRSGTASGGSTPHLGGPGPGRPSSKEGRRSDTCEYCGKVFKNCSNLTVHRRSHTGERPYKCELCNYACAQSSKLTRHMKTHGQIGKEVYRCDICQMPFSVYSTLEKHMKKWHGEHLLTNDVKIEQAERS

How the values were obtained:
[1] = molecular target: endogenous HMGA1 (human (endogenous in human microglial cells)) (UniProt P17096); test: co-IP; endogenous HMGA1 immunopurified from nuclear extracts of microglial cells with a specific anti-HMGA1 antibody (Abcam); western blot for endogenous CTIP2; boiled anti-HMGA1 IgG as control
HMGA1-FLAG [2] = molecular target: HMGA1-FLAG (UniProt P17096); test: co-IP; HMGA1-FLAG immunoprecipitated with M2 anti-FLAG agarose from nuclear extracts of transiently transfected HEK293 cells, in the absence of RNase A; western blot for endogenous proteins; mock-transfected cells as control
HMGA1-FLAG [3] = molecular target: HMGA1-FLAG (UniProt P17096); test: co-IP; HMGA1-FLAG immunoprecipitated with M2 anti-FLAG agarose from nuclear extracts of transiently transfected HEK293 cells, in the presence of RNase A; western blot for endogenous proteins; mock-transfected cells as control

Measured: binding

chicken ovalbumin upstream promoter transcription factor (COUP-TF) interacting protein 2 (CTIP2) (from UniProt Q9C0K0 1-894)
binds: all assays above
